Results are given in words; binding and its absence hold for the method and conditions named. Binding seen in cells or lysates may run through a third protein. Some binding calls cover weakened binding; strength is not graded here.
Experiments:
[1] = target: T1, TGF-β receptor type II (endogenous, NMuMG cells) (mouse (endogenous in NMuMG)) (UniProt Q62312); assay: cross-linking + co-IP; after binding and cross-linking of [125I]TGF-β1 to NMuMG cells, detergent-solubilized extracts immunoprecipitated with anti-TβR-II antibodies; blot with anti-β3 integrin antibodies, phosphor image for the receptors
T1 sequence: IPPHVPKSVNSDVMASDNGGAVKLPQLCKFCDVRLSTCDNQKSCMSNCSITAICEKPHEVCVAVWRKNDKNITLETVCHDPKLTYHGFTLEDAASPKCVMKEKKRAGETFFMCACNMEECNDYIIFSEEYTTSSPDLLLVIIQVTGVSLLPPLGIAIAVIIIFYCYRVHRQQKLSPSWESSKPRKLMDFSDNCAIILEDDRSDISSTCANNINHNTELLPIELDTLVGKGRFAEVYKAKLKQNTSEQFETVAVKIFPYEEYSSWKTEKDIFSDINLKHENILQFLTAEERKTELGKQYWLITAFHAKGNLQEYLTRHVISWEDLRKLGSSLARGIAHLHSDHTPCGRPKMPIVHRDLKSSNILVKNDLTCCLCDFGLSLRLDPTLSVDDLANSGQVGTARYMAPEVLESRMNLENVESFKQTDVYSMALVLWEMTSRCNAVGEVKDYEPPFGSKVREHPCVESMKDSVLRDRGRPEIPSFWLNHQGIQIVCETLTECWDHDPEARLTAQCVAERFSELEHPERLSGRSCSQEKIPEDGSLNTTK

Protein sequences, listed by entry. Tags and fused reporters are not part of them. Lines headed by an entry give the natural chain unless they say otherwise; changes in a name come on top. Chains listed by the source or under a name are the forms on record and can include a tag or linker. Residues count along the entry.
wild-type (WT) human β3 integrin (P05106, residues 27-788): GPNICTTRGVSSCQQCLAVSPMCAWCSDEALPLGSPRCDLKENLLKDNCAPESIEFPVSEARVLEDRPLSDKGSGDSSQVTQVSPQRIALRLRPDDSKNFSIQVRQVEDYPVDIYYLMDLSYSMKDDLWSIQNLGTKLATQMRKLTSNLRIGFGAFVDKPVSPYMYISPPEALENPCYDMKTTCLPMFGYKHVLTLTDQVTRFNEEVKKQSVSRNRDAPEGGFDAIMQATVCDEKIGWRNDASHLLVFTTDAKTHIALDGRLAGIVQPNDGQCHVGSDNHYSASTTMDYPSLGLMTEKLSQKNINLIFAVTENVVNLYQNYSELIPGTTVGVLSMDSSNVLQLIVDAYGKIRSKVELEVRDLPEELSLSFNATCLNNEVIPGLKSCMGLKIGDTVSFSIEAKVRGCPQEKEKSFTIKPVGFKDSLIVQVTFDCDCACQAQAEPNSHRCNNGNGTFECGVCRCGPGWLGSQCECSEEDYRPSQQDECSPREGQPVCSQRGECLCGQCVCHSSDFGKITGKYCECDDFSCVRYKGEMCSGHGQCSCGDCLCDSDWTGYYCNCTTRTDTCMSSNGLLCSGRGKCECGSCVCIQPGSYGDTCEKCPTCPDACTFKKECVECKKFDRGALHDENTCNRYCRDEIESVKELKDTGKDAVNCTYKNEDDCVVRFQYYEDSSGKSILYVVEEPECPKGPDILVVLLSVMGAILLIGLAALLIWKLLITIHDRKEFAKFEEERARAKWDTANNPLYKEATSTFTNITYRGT
D119A β3 integrin (inactive mutant of human β3 integrin) (P05106, form named): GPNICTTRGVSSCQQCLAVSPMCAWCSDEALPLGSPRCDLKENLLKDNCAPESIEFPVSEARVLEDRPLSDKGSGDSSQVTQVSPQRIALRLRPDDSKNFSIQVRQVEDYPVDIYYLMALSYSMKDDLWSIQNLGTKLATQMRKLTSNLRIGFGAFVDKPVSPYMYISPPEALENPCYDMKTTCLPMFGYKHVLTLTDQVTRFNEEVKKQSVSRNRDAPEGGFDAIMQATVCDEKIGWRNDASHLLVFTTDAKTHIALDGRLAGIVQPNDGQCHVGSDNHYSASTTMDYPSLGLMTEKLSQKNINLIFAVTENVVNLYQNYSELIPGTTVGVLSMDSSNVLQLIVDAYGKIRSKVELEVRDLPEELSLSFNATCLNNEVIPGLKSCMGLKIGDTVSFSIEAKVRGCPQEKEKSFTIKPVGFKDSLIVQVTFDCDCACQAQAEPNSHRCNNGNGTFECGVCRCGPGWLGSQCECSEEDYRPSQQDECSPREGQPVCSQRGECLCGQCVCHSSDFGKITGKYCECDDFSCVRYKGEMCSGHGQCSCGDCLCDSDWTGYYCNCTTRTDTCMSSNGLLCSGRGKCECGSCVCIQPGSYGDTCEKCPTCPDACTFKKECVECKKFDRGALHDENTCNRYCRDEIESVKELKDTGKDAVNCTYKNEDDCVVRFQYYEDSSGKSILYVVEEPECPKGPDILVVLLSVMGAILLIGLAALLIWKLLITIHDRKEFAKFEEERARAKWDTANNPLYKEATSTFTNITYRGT
UniProt P01137, residues 279-390: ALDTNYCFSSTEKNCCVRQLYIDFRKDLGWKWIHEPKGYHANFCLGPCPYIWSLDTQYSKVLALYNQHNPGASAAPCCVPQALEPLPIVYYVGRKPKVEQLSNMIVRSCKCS

[2] = target: T2, TGF-β receptor type I (endogenous, NMuMG cells) (mouse (endogenous in NMuMG)) (UniProt Q64729); assay: radioligand binding + cross-linking; [125I]TGF-β1 (200 pmol/l) bound and chemically cross-linked to control (GFP), WT or D119A β3 integrin expressing NMuMG cells; complexes immunoprecipitated with anti-TβR-II, 7.5% SDS-PAGE, phosphor image; only the binder purified
T2 sequence: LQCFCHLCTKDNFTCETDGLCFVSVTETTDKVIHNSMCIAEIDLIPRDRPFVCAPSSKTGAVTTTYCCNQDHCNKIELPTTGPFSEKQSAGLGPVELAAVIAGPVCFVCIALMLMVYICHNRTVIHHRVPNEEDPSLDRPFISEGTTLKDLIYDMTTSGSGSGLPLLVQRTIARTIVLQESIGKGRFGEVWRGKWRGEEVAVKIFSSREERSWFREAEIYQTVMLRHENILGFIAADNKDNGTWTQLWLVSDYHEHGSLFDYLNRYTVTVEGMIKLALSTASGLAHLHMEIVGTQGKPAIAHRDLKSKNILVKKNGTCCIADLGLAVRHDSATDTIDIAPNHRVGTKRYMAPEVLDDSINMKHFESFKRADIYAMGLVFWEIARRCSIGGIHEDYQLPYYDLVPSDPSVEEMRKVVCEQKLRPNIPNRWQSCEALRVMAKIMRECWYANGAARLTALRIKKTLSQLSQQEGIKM

[3] = target: T1, TGF-β receptor type II (endogenous, NMuMG cells) (mouse (endogenous in NMuMG)); assay: as above

| Substance | binding [1] | binding [2] | binding [3] |
| --- | --- | --- | --- |
| D119A β3 integrin (inactive mutant of human β3 integrin) (from UniProt P05106 27-788) (receptor) | binds |  |  |
| iodinated transforming growth factor-β1 (from UniProt P01137 279-390) (ligand) |  | binds | binds |
| wild-type (WT) human β3 integrin (from UniProt P05106 27-788) (receptor) | binds |  |  |

From PMC1779461
